Results taken from PubChem BioAssay AID1671190 (National Center for Advancing Translational Sciences (NCATS), 2021).
Out of some 580,000 compounds screened, about 6,100 (1.1%) were called active. Inconclusive means that the source gave no clear call. Such entries were picked first, then a sample of the others. Calls come from the whole dose curve; as a rule, active = well fitted inhibition curve with a large enough effect; inconclusive = small, poorly fitted or top-dose-only effect, or another doubt; inactive = no such curve, though single readings can be large or run the other way. Potencies beside an inconclusive call are fits to weak or partial responses and may not hold up.

By UniProt entry, the sequences of proteins in these tests, tags left out.
UniProt P18054, whole entry, looked up: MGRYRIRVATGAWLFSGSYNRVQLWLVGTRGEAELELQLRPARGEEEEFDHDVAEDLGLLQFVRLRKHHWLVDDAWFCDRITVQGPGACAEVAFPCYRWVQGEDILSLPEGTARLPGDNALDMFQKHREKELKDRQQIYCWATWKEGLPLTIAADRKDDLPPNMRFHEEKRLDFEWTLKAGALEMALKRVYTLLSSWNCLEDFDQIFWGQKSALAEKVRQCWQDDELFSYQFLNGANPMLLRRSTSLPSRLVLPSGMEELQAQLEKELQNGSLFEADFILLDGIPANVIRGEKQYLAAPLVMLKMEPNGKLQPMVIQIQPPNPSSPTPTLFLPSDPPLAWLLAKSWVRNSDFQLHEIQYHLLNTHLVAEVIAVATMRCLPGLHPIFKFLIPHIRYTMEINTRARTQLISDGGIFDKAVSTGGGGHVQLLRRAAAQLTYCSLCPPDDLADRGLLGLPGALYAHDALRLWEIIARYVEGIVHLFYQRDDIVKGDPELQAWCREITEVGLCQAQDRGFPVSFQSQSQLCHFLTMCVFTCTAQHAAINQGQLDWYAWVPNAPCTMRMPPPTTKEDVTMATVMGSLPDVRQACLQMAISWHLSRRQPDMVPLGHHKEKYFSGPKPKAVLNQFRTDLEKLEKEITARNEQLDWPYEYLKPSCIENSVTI

What follows are molecules tested against Polyunsaturated fatty acid lipoxygenase ALOX12 (Homo sapiens) (UniProt P18054) (assay: Primary qHTS assay for inhibitors of human arachidonate 12S-lipoxygenase (ALOX12): Round 2). Settings: purified 12hLO, xylenol orange hydroperoxide absorbance; series mostly up to 108 µM.
How it was run: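 Hydroperoxide product was detected by ferrous iron/xylenol orange as the 573 to 405 nm absorbance ratio. Arachidonic acid at 40 uM (final) was turned over for 30 min at room temperature by 150 nM human 12hLO, pH 7.0 Hepes buffer, after 15 min compound preincubation.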
Potency is the fitted concentration of half-maximal effect.

| SMILES | Potency |
| --- | --- |
| O=C1OCCC1N1CCC(c2nc3ccccc3s2)CC1 (stereo not drawn) | inactive |
| O=C(C1CC(c2ccccc2O)=NO1)N1CCCCC1 (stereo not drawn) | inconclusive: 2.82 µM [inhibitor, full curve, poor fit] |
| Nc1nonc1N/N=C\c1ccccc1 | inactive |
| Cc1cc(Br)c(S(=O)(=O)NCCO)cc1C | inconclusive: 2.51 µM [inhibitor, full curve, poor fit] |
| COCC(=O)Oc1c(S(=O)(=O)c2ccccc2)c(C)nn1C(C)(C)C | inconclusive: 35.5 µM [inhibitor, partial curve, poor fit] |
| CC1(C(=O)NCCCn2ccnc2)CCc2cnc(NCc3ccccc3)nc21 (stereo not drawn) | inactive |
| CC1CC2c3cccc(C(=O)O)c3C(=O)N2c2ccc(Cl)cc21 (stereo not drawn) | inconclusive: 3.16 µM [inhibitor, full curve] |
| Cc1cc(C)c2nc(-c3ccccn3)cc(C(=O)Nc3ccc(S(=O)(=O)Nc4onc(C)c4C)cc3)c2c1 | inconclusive: 50.1 µM [inhibitor, partial curve, poor fit] |
| CCn1[nH]c(=O)c(=Nc2c(C)n(C)n(-c3ccccc3)c2=O)cc1-c1ccc(Cl)cc1 | inconclusive: 22.4 µM [inhibitor, partial curve, poor fit] |
| CCNC(=S)Nc1ccc2c(c1)c(=O)n(C)n2CC=C(C)C | inactive |
| O=c1cc(CO)oc(C(Nc2cccc(C(F)(F)F)c2)c2ccccn2)c1O (stereo not drawn) | inconclusive: 50.1 µM [inhibitor, partial curve, poor fit] |
| O=C(CSc1nc2ncc(Br)cc2[nH]1)Nc1ccccc1-c1ccccc1 | inactive |
| NC(c1ccc(F)cc1)c1ccccc1I (stereo not drawn) | inconclusive: 0.224 µM [inhibitor, full curve, poor fit] |
| O=C(NCCc1ccccc1F)C1CN(c2cccc(Cl)c2)C(=O)N1 (stereo not drawn) | inconclusive: 89.1 µM [inhibitor, partial curve, poor fit] |
| Cc1c(NC(=O)Nc2ccc(Cl)c(Cl)c2)sc(=S)n1C | inconclusive: 0.891 µM [inhibitor, full curve, poor fit] |
| Clc1ccc(NCc2nnc3n2CCCCC3)cc1 | inconclusive: 112 µM [inhibitor, single point] |
| Cc1cccc(NC(=S)N(c2ccccc2)C(C)C)c1C | inactive |
| CC(C)(C)Cc1nnc(NC(=O)Cc2ccc([N+](=O)[O-])cc2)s1 | inconclusive: 50.1 µM [inhibitor, partial curve, poor fit] |
| CC(NC(=O)C(c1ccccc1)C(C)C)c1ccc2c(c1)CCCC2 (stereo not drawn) | inconclusive: 44.7 µM [inhibitor, partial curve, poor fit] |
| O=C(Cc1c[nH]c2ccccc12)NCCOc1ccc(Cl)cc1 | inconclusive: 39.8 µM [inhibitor, partial curve, poor fit] |
| Cc1cc(N(C)C)nc(Nc2ccccc2)n1 | inconclusive: 44.7 µM [inhibitor, partial curve, poor fit] |
| C/C(=N\NC(N)=O)c1ccc(-n2ccnc2)cc1 | inactive |
| CCC(ONc1ccccc1C(F)(F)F)(C(=O)NN(C)C)c1ccccc1 (stereo not drawn) | inconclusive: 56.2 µM [inhibitor, partial curve, poor fit] |

Retrieved by compound from the list above (two):

| SMILES | Potency |
| --- | --- |
| CCC(ONc1ccccc1C(F)(F)F)(C(=O)NN(C)C)c1ccccc1 (stereo not drawn) | inconclusive: 56.2 µM [inhibitor, partial curve, poor fit] |
| CCn1[nH]c(=O)c(=Nc2c(C)n(C)n(-c3ccccc3)c2=O)cc1-c1ccc(Cl)cc1 | inconclusive: 22.4 µM [inhibitor, partial curve, poor fit] |

(list continues)

| SMILES | Potency |
| --- | --- |
| Cc1ccc(C)c(COC(=O)Cn2cnc3c2c(=O)n(C)c(=O)n3C)c1 | inconclusive: 3.16 µM [inhibitor, full curve, poor fit] |
| COc1cccc2cc(C(=O)NCc3ccc(C)cc3)c(=O)oc12 | inconclusive: 44.7 µM [inhibitor, partial curve, poor fit] |
| O=C(C1CCCCC1)N1CCC2CC1c1cc(-c3ccc4c(c3)OCO4)ccc12 (stereo not drawn) | inconclusive: 112 µM [inhibitor, single point] |
| CN(Cc1ccc2nonc2c1)Cc1nc(Cc2cccc(F)c2)no1 | inactive |
| COc1cccc(C2C(C(=O)c3cc4ccccc4o3)=C(O)C(=O)N2c2cc(C)on2)c1 (stereo not drawn) | inconclusive: 44.7 µM [inhibitor, partial curve, poor fit] |
| Cc1ccc2[nH]cc(CCNC(=O)c3ccccc3C)c2c1 | inconclusive: 11.2 µM [inhibitor, partial curve] |
| COc1cc(/C=C2/SC(=O)N(CC(=O)N3CCCC3)C2=O)ccc1Oc1ccc([N+](=O)[O-])cn1 | inactive |
| CN(C)c1ccc(CN(CC2CCCO2)C(=O)COc2ccccc2Cl)cc1 (stereo not drawn) | inactive |
| Cc1ccc(S(=O)(=O)NCCC(=O)Nc2nccs2)cc1 | inactive |
| O=C(Cn1ncc2ccccc2c1=O)NCC1CCCCC1 | inconclusive: 44.7 µM [inhibitor, partial curve, poor fit] |
| O=S1(=O)N[C@@H](Cc2ccccc2)COc2cccc(NCCO)c21 | inconclusive: 44.7 µM [inhibitor, partial curve, poor fit] |
| COc1cc(SC)ccc1C(=O)Nc1cccc(S(=O)(=O)NC2=NCCC2)c1 | inconclusive: 112 µM [inhibitor, single point] |
| c1ccc2oc(CSc3ccc4c(c3)OCCCO4)nc2c1 | inactive |
| Cc1ccc(NC(=O)CCC(=O)N/N=C/c2cccnc2)cc1 | inactive |
| O=C(CN1C(=O)/C(=C\c2ccc(F)cc2)Oc2ccccc21)N1CCN(c2ccccn2)CC1 | inconclusive: 141 µM [inhibitor, partial curve, poor fit] |
| COc1cccc(CC(=O)Nc2ccc3c(N4CCCCC4)ncnc3c2)c1 | inactive |
| Cc1cccc(Nc2nnc(-c3cc4ccc(O)cc4oc3=O)s2)c1 | inactive |
| Cc1c(O)ccc2cc(S(=O)(=O)c3ccccc3)c(=O)oc12 | inactive |
| CCCc1nc2c3ccccc3ccn2c1Cc1cccc(Cl)c1 | inconclusive: 39.8 µM [inhibitor, partial curve] |
| COc1cc(C(=O)Nc2oc3c(C)cccc3c(=O)c2-c2ccccc2)cc(OC)c1OC | inactive |
| Cc1oc(C)c2c(=O)ccc3c(c12)OC(N)=C(C#N)C3c1ccccc1Cl (stereo not drawn) | inconclusive: 3.16 µM [inhibitor, full curve, poor fit] |
| O=[N+]([O-])c1cc(NCCO)c(N2CCCCCC2)c2nonc12 | inconclusive: 0.355 µM [inhibitor, full curve, poor fit] |
| Cc1ccccc1C(=O)N(Cc1ccc(N(C)C)cc1)Cc1ccco1 | inconclusive: 28.2 µM [inhibitor, partial curve, poor fit] |

3 compounds out of the list, arranged by molecular weight, descending.

| SMILES | Potency |
| --- | --- |
| COc1cc(SC)ccc1C(=O)Nc1cccc(S(=O)(=O)NC2=NCCC2)c1 | inconclusive: 112 µM [inhibitor, single point] |
| O=C(C1CCCCC1)N1CCC2CC1c1cc(-c3ccc4c(c3)OCO4)ccc12 (stereo not drawn) | inconclusive: 112 µM [inhibitor, single point] |
| Cc1ccc2[nH]cc(CCNC(=O)c3ccccc3C)c2c1 | inconclusive: 11.2 µM [inhibitor, partial curve] |

The list continues:

| SMILES | Potency |
| --- | --- |
| COc1ccc(C(=O)N2CCCC(Cn3c(C)nc4cccnc43)C2)c(OC)c1 (stereo not drawn) | inactive |
| CCOc1cccc(/C=C/c2ccc3ccccc3n2)c1OC(C)=O | inconclusive: 4.47 µM [inhibitor, full curve, poor fit] |
| CC1CCN(CC(=O)Nc2ccc(S(=O)(=O)NC3CC3)cc2)CC1 | inconclusive: 1 µM [inhibitor, full curve, poor fit] |
| CCOc1cc(N2CCOCC2)c(OCC)cc1NC(=O)CC12CC3CC(CC(C3)C1)C2 | inconclusive: 79.4 µM [inhibitor, single point] |
| CC(=O)Nc1ccc(Nc2cc3[nH]c(-c4cccc(F)c4)cc3cn2)cc1 | inconclusive: 50.1 µM [inhibitor, partial curve, poor fit] |
| COc1cccc(C(=O)Nc2ccccc2NC(=O)c2cccc(OC)c2)c1 | inactive |
| NC(Cc1ccccc1)c1csc(NC(=O)Nc2ccccc2Oc2ccccc2)n1 (stereo not drawn) | inconclusive: 56.2 µM [inhibitor, partial curve, poor fit] |
| O=C(OCC(=O)c1ccc[nH]1)c1cccc(S(=O)(=O)Nc2ccc(F)cc2)c1 | inconclusive: 11.2 µM [inhibitor, full curve, poor fit] |
| COc1ccc(/C=N/c2c(-c3ccco3)nc3ccccn23)cc1OC | inconclusive: 44.7 µM [inhibitor, partial curve, poor fit] |
| CCNC(=O)C1(C)CCCN(Cc2ccc(-c3ccccc3)o2)C1 (stereo not drawn) | inactive |
| O=c1c2ccccc2sn1-c1ccccc1F | inconclusive: 0.316 µM [inhibitor, full curve, poor fit] |
| N#CCCN1CCN(C(C(=O)O)c2cn(CCC(=O)O)c3cc(Br)ccc23)CC1 (stereo not drawn) | inactive |
| CN(C)C(=O)C(Sc1ccc(S(=O)(=O)N2CCCC2)cn1)c1ccccc1 (stereo not drawn) | inconclusive: 25.1 µM [inhibitor, partial curve, poor fit] |
| CCCc1c(-c2cccc(Br)c2)ncn1CCc1ccccc1OC | inconclusive: 50.1 µM [inhibitor, partial curve, poor fit] |
| Cc1cccc(N(CC(=O)Nc2c(C)cccc2C)S(C)(=O)=O)c1C | inactive |
| CCc1nccn(Cc2nnc(C3CC(N)C3)n2CCOC)c1=O (stereo not drawn) | inactive |
| CCCCCCSc1cccc(-c2nc3ccc(Cl)cn3c2NCc2ccccc2)c1 | inconclusive: 20 µM [inhibitor, partial curve, poor fit] |
| O=C(COc1coc(CN2CCc3ccccc3C2)cc1=O)Nc1ccc(Cl)cc1 | inconclusive: 70.8 µM [inhibitor, partial curve, poor fit] |
| CCOc1cc(C)c(-c2onc(C(F)(F)F)c2-c2csc(C)n2)c(O)c1 | inactive |
| CCCNC(=O)c1ccc(N2CCC3(CC2)CC(c2cccc(Br)c2)=NO3)c(NC(=O)c2ccccc2)c1 | inconclusive: 0.562 µM [inhibitor, full curve, poor fit] |
| O=C(c1cccs1)N(Cc1cccnc1)c1nc2c(Cl)cccc2s1 | inactive |
| COc1cc(CNCc2ccc(C)cc2)cc(OC)c1OC | inconclusive: 0.891 µM [inhibitor, full curve, poor fit] |
